Source: PubChem BioAssay AID2417 (National Center for Advancing Translational Sciences (NCATS), 2010)
The whole screen tested about 140,000 compounds, of which about 4,300 (3.1%) were called active. Inconclusive means that the source gave no clear call. Such entries were picked first, then a sample of the others.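 The calls were made as follows: active = readout at or below -70, meaning at least 70% loss of cells showing the perinucleolar compartment, a nuclear body marking cancer cells; inconclusive = readout between -30 and a set limit; inactive = the rest.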

assay: High Content Assay for Compounds that inhibit the Assembly of the Perinucleolar Compartment; settings: PC3M PTB-GFP, PNC prevalence imaging, 16 h; at 10 µM; stronger effect = lower value;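 also: plate controls were DMSO wells for no effect and camptothecin positive control wells for full effect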
In short: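 Compounds are pinned in duplicate onto adhered PC3M cells stably expressing GFP-tagged PTB and incubated 16 h at 37 C. Cells are then fixed, nuclei stained with Hoechst, and PNC-positive cells counted.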

| Compound | activity change (PNC), negative = inhibition |
| --- | --- |
| CC1CCCC(C)N1C(=O)CSc1nc2ccccc2s1 (stereo unspecified) | inactive: 35.1% |
| COc1ccccc1CC(=O)NCC1CCCO1 (stereo unspecified) | inactive: 4.06% |
| C=CCn1c(N2CCCCCC2)nc2c1c(=O)[nH]c(=O)n2C | inconclusive: -65.7% |
| O=[N+]([O-])c1cc(/C=N/Nc2nc3ccccc3[nH]2)c(O)cc1O | inconclusive: -64.3% |
| CCOc1cccc2cc(-c3nnc(NCc4ccco4)s3)c(=O)oc12 | inactive: 33.7% |
| CCCCC(CCC(=O)Nc1nccs1)C(=O)O (stereo unspecified) | inconclusive: -57.9% |
| COc1ccc(NC(=O)C2CCCN2C(=O)NCc2ccccc2)c(OC)c1 (stereo unspecified) | inconclusive: -41.9% |
| Clc1ccccc1-c1nn2c(COc3ccccc3)nnc2s1 | inactive: 12.5% |
| CCOc1ccc(NS(=O)(=O)c2ccc(OCC(=O)NCCCOC)cc2)cc1 | inconclusive: -38.1% |
| COc1cccc(CNC(=O)C(c2ccc(Cl)cc2)C(C)C)c1 (stereo unspecified) | inconclusive: -34.2% |
| COc1cccc(NC(=S)NCc2cccs2)c1 | inactive: -7.31% |
| CCCCCCNC(=O)c1cc(-c2ccco2)nc2ccccc12 | inactive: -13.9% |
| O=c1cc(CSc2nnnn2-c2ccccc2)nc(Nc2ccc(F)cc2)[nH]1 | inconclusive: -38.4% |
| CC(=O)c1ccc(N2CCC(c3cc(-c4ccc(Cl)cc4Cl)n[nH]3)CC2)c([N+](=O)[O-])c1 | inconclusive: -50.6% |
| O=C(Nc1ccc(Cl)cc1)Nc1nnc(SCc2ccccc2)s1 | inconclusive: -63.9% |
| COc1ccc(-c2cc(C(F)(F)F)n3nc(C(=O)NCc4ccco4)cc3n2)cc1 | active: -114% |
| COCC(=O)Nc1ccc(N(C)C)cc1 | active: -80.9% |
| CCS(=O)(=O)N1CCN(c2c(Cl)cccc2[N+](=O)[O-])CC1 | inconclusive: -57% |
| COCCn1nnnc1CN1CCC(Cc2ccccc2)CC1 | active: -100% |
| Cc1ccc(NC(=O)/C(C#N)=C/c2ccccc2C(F)(F)F)cc1 | inconclusive: -44.1% |
| COc1cc(OC)c2c(c1)OC(c1ccc(OC)c(OC)c1)C(O)C2=O (stereo unspecified) | inactive: -2.97% |
| CNc1nc(Nc2ccc(C)c(Cl)c2)nc(N)c1[N+](=O)[O-] | active: -113% |
| C/C(N)=C(/C#N)C(=O)CSc1nnnn1-c1ccc(C)cc1C | active: -133% |

| Compound | activity change (PNC), negative = inhibition |
| --- | --- |
| CCOC(=O)Cn1c(S(=O)(=O)Cc2ccc(Cl)cc2)nc(-c2ccccc2)c1-c1ccccc1 | inconclusive: -41.6% |
| COc1ccc(C(=O)N2CCN(c3ccc([N+](=O)[O-])c(NCCc4ccc(OC)c(OC)c4)c3)CC2)cc1 | inconclusive: -72.3% |
| Fc1ccccc1COc1ccc(/C=N/NC(=S)NCc2ccccc2)cc1 | inconclusive: -58.8% |
| O=C(NCc1cccnc1)/C(=N\O)c1ccccc1 | inconclusive: -33.5% |
| C=CCN(CC=C)S(=O)(=O)c1ccc(C(=O)Nc2sc3c(c2C(N)=O)CCCCC3)cc1 | inconclusive: -55.4% |
| CCc1nnc(NC(=O)C2Cc3ccccc3C(=O)O2)s1 (stereo unspecified) | inconclusive: -30.2% |
| C/C(=N\NC(=S)NC1CCCCC1)c1cccc(Br)c1 | inconclusive: -56.5% |
| Cn1c(C(=O)Nc2ccc3c(c2)OCO3)cc2sccc21 | inconclusive: -42.1% |
| CCOC(=O)c1c(C)oc2ccc(OCC(N)=O)cc12 | inconclusive: -32.8% |
| NC(=O)c1c(NC(=O)C2CCCO2)sc2c1CCCCC2 (stereo unspecified) | inactive: -22.4% |
| COc1ccc2ccccc2c1/C=N/O | active: -108% |
| CC(Oc1ccc(-c2ccccc2)c(F)c1)c1ccn(S(=O)(=O)c2ccc(Cl)cc2)n1 (stereo unspecified) | inactive: 7.53% |
| CCOc1ccc(NC(=O)CSc2nnc(C(C)C)n2CC)cc1 | active: -119% |
| CCOC(=O)C(C)N1N=C(/C=C/c2ccc(OC)cc2)CCC1=O (stereo unspecified) | inactive: 55.4% |
| Cc1ccccc1C(=O)NC1CCS(=O)(=O)C1 (stereo unspecified) | inconclusive: -30.5% |
| CN(CCO)C1=CC(=O)CC(C)(C)C1 | inconclusive: -32.7% |
| Cc1nc(CC(=O)Nc2nc(-c3ccccc3)cs2)cs1 | inconclusive: -54.5% |
| CC(Sc1nc2ccccc2s1)C(=O)NCc1ccc2c(c1)OCO2 (stereo unspecified) | inconclusive: -31.7% |
| O=C(Nc1ccccc1F)C(=Cc1sc(N2CCOCC2)nc1-c1ccccc1)C(=O)Nc1ccccc1F | inconclusive: -32.5% |
| CCCOC(=O)c1ccc(Oc2c(-c3ccc(OCC)cc3O)n[nH]c2C)cc1 | inconclusive: -33.2% |
| O=c1c(N2CCOCC2)nsnc1N1CCOCC1 | inconclusive: -37% |
| Cc1ccc(-n2nnnc2SCC(=O)Nc2cccc(NC(=O)c3ccco3)c2)cc1C | inactive: -18.5% |
| O=C1CCCN1c1ccc(S(=O)(=O)Oc2cccc(Cl)c2)cc1[N+](=O)[O-] | active: -106% |

Sorted by SMILES length (smallest number first): part of the list above

| Compound | activity change (PNC), negative = inhibition |
| --- | --- |
| COc1ccc2ccccc2c1/C=N/O | active: -108% |
| C/C(=N\NC(=S)NC1CCCCC1)c1cccc(Br)c1 | inconclusive: -56.5% |
| CC(Oc1ccc(-c2ccccc2)c(F)c1)c1ccn(S(=O)(=O)c2ccc(Cl)cc2)n1 (stereo unspecified) | inactive: 7.53% |
| CCOC(=O)Cn1c(S(=O)(=O)Cc2ccc(Cl)cc2)nc(-c2ccccc2)c1-c1ccccc1 | inconclusive: -41.6% |

Additional records follow.

| Compound | activity change (PNC), negative = inhibition |
| --- | --- |
| Cc1ccc(C)c(NC(=S)NNC(=O)c2csc(C)c2C)c1 | inconclusive: -34.7% |
| O=C(Nn1cnc2ccccc2c1=O)C1CCCCC1 | inconclusive: -31.9% |
| CCSc1nc2sc3c(c2c(=O)[nH]1)CC(C)(CC)OC3 (stereo unspecified) | inactive: 46.4% |
| N#CCCn1cc(C(CC(=O)c2ccccc2)C(=O)O)c2ccccc21 (stereo unspecified) | inconclusive: -57.5% |
| COc1ccccc1NC(=O)CCSCCC(=O)Nc1ccccc1OC | inactive: -8.23% |
| CCCCN(CC)C(=O)Cn1c(=O)sc2ccccc21 | inactive: 26.7% |
| O=C(NC1CCCCC1)C(c1ccc2ncccc2c1)N(Cc1ccc(F)cc1)C(=O)c1ccc2c(c1)OCCO2 (stereo unspecified) | inactive: -7.8% |
| N/C(=N\OC(=O)COc1ccc(Br)cc1)c1ccncc1 | active: -102% |
| CCOC(=O)c1c(C)n(C)c2ccc(OC)c(NC(=O)CN3CCSCC3)c12 | active: -105% |
| Cc1ccc2c(c1)C1CN(C)CCC1N2C(=O)c1ccccc1NS(=O)(=O)c1cccc(C(F)(F)F)c1 (stereo unspecified) | inactive: 31.2% |
| Cc1cc(C(N)=O)c2cc(Br)ccc2n1 | active: -89.5% |
| Nc1[nH]n2c(=O)c3c(nc2c1N=Nc1ccc(Cl)cc1)CCCC3 | inconclusive: -36.9% |
| Cc1ccc(C23CC4CC(CC(NC(=O)NCCN(C)C)(C4)C2)C3)cc1 | inconclusive: -47.4% |
| CCOC(=O)N1CCN(C(=O)CN(c2ccc(C)cc2)S(=O)(=O)c2c(C)noc2C)CC1 | inconclusive: -70% |
| O=C(CN(C(=O)CCC(=O)Nc1nccs1)c1ccccc1F)NCC1CCCO1 (stereo unspecified) | inconclusive: -66.3% |
| CC(C)(C)c1ccc(C(=O)NNC(=O)c2cccc(Br)c2)cc1 | inconclusive: -79.7% |
| CNc1ccc(/C=C/C(=O)c2cccc3ccccc23)cc1[N+](=O)[O-] | inactive: 6.94% |
| CC[n+]1c(/C=C2\C=C(C)CC(C)C2)sc2ccccc21 (stereo unspecified) | inconclusive: -37% |
| Cc1cc(NC(=O)CSc2nc3cc(Cl)ccc3s2)no1 | inactive: 8.61% |
| COc1ccc(C(=O)Nc2nc(C)c(C(=O)N(C)C)s2)cc1OC | inconclusive: -42.7% |
| Cc1ccc2c(n1)sc1c(-c3ccccc3)c(C#N)c(N)nc12 | inactive: 9.42% |
| Cc1cccc2nc(=S)n(C(=O)c3ccco3)n12 | inconclusive: -31.3% |
| Cc1ccc(C(C(=O)NCc2ccccc2)N(C(=O)c2csnn2)c2cccc3ccccc23)o1 (stereo unspecified) | inactive: 19.1% |

| Compound | activity change (PNC), negative = inhibition |
| --- | --- |
| C/C=C/c1ccc(OCCN2C(=O)NC(C)(C)C2=O)c(OC)c1 | inactive: 17.2% |
| CCCC1NC(=O)NC(C)=C1C(=O)OCC (stereo unspecified) | inconclusive: -48.5% |
| NC(=O)C1CCN(C2=C(Cl)C(=O)c3ccccc3C2=O)CC1 | inactive: -23.4% |
| CCCCn1c(N)c(N(CC(C)C)C(=O)CN(C)Cc2cccc(OC)c2)c(=O)[nH]c1=O | inconclusive: -46.2% |
| COc1cc(OC)c(S(=O)(=O)Nc2ccc(C)cn2)cc1NC(C)=O | inconclusive: -47.6% |
| COC(=O)C1=C(C(=O)c2ccccc2)C(c2ccc(O)c(OC)c2)n2nnnc2N1 (stereo unspecified) | inactive: 21.7% |
| O=C(NCCC1=CCCCC1)NC12CC3CC(CC(C3)C1)C2 | inactive: 16.7% |
| Cc1ccc(NC(=S)NN(C)c2nc(C)cnc2C)cc1 | inactive: -23.5% |
| CC(=O)c1c(C)[nH]c(C(=O)OCC(=O)Nc2cc(S(=O)(=O)N3CCCCC3)ccc2C)c1C | inconclusive: -33.2% |
| COc1ccc(-c2cc(-c3cc(OC)ccc3O)[nH]n2)cc1 | inconclusive: -31.6% |
| COc1ccc(C(=O)Cc2ccc(F)cc2)c(OC)c1 | inconclusive: -39% |
| CCOC(=O)c1cc2sccc2n1CC(=O)Nc1ccc2c(c1)OCCO2 | inconclusive: -40.6% |
| CCOP(=O)(OCC)c1nc(-c2cccc3ccccc23)oc1NCCc1ccc(OC)cc1 | inconclusive: -33.6% |
| CCOc1cccc(NC(=O)C2CCCN(S(=O)(=O)c3ccc(-n4cnnn4)cc3)C2)c1 (stereo unspecified) | inconclusive: -49.9% |
| Cc1ccc(Nc2nc(CSc3nnc(-c4cccnc4)n3-c3ccccc3F)cs2)cc1 | inconclusive: -51.9% |
| COCCCN1C(=O)c2ccc(C(=O)O)cc2C1=O | inactive: -1.45% |
| O=C(CSc1nc2ccc(Cl)cc2[nH]1)NCCc1ccccc1 | inconclusive: -75.1% |
| Cc1cc(NCCN(C)C)n2nc(-c3cccs3)cc2n1 | active: -88.7% |
| COc1ccc(CN(Cc2cccnc2)C(=S)NCCc2ccccc2)cc1OC | active: -106% |
| Cc1cc(C(=O)NC(C)c2ccncc2)cs1 (stereo unspecified) | inconclusive: -34.3% |
| Cc1ccc(S(=O)(=O)N(C)C)cc1NC(=S)NC12CC3CC(CC(C3)C1)C2 | inactive: -20.7% |
| CCOC(=O)CCCSc1nnc(CCCCCN2C(=O)c3cccc4cccc(c34)C2=O)o1 | inactive: -29.6% |

3 entries from above in a different format:
Compound	activity change (PNC), negative = inhibition
CCS(=O)(=O)N1CCN(c2c(Cl)cccc2[N+](=O)[O-])CC1	inconclusive: -57%
C/C=C/c1ccc(OCCN2C(=O)NC(C)(C)C2=O)c(OC)c1	inactive: 17.2%
COCCCN1C(=O)c2ccc(C(=O)O)cc2C1=O	inactive: -1.45%
